Measurements reported in PubChem BioAssay AID504804 (Drosophila RNAi Screening Center, 2011).
The deposit covers about 19,000 reagents; this is a random part of those that have a named target and a result. Over the whole deposit, 47 (0.25%) were called active. 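Signals are raw, not normalised; exact z-scores behind calls not deposited; actives needed confirmation, so some wells reaching 2 SD are inactive.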 Reagents against one gene are numbered here. A plus sign joins genes that one reagent is predicted to hit.

Aim: 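Fly genes whose loss lessens doxorubicin-driven cell death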 (primary screen)
System: Drosophila Kc cells
Reagents: long dsRNA against Drosophila genes, 0.5 µg dsRNA per well
Time to read-out: 96 h (48 h knock-down, then 48 h drug)
Challenge: doxorubicin 5 µg/ml for 48 h, added 48 h after dsRNA
Detection: 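Viability measured as cellular ATP by luminescence after 48 h knock-down then 48 h doxorubicin at 5 µg/ml; unnormalised plate counts for each replicate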
Reading the numbers: raw ATP luminescence: higher = more viable cells, protection from doxorubicin
Active means: 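z-score of 2 or more over plate mean in both duplicates, retained only when retests and separate dsRNAs confirm the protection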

no.	gene	dsRNA no.	SD above plate mean	raw ATP luminescence, replicate 1	raw ATP luminescence, replicate 2	call
1	per	1		49160	61620	inactive
2	Tpc2	1		28400	64030	inactive
3	CR31292	1		2.96e5	3.61e5	inactive
4	nebu	1		45097	39013	inactive
5	nebu	2		68703	62720	inactive
6	CG3860	1		93790	79097	inactive
7	Nhe2	1		60247	58057	inactive
8	Nhe2	2		64710	50910	inactive
9	Ice2	1		42883	67770	inactive
10	Dap160	1		80243	65097	inactive
11	CG14546	1		83660	74070	inactive
12	Edg78E	1		56343	53900	inactive
13	Femcoat	1		39990	48540	inactive
14	galla-2	1		81863	76913	inactive
15	CG30183	1		51013	53573	inactive
16	CG30183	2		55707	52560	inactive
17	CG31523	1		50240	57090	inactive
18	CG31523	2		29187	29053	inactive
19	CG30440	1		95470	1.09e5	inactive
20	CG30440	2		47347	62977	inactive
21	CG30440	3		38660	50787	inactive
22	CG13751	1		40183	91387	inactive
23	CG17327	1		97420	69590	inactive
24	Sap-r	1		1.77e5	1.62e5	inactive
25	CG13492	1		80497	70760	inactive
26	Irk3	1		43367	63043	inactive
27	spict	1		98557	72800	inactive
28	Pep	1		29953	23463	inactive
29	eIF4E6	1		55170	59340	inactive
30	Acsx1R	1		63100	36290	inactive
31	CG33177	1		4.22e5	3.69e5	inactive
32	hpRNA:CR18854 + IP3K1	1		83837	64817	inactive
33	CG13082	1		46080	48180	inactive
34	TfIIEalpha	1		49510	31870	inactive
35	PIG-S	1		32670	24790	inactive
36	PIG-S	2		64110	66100	inactive
37	PIG-S	3		39410	30720	inactive
38	AP-1gamma	1		3.04e5	2.63e5	inactive
39	CG33769	1		42567	31030	inactive
40	CG14186	1		20433	19323	inactive
41	CG6793	1		86267	75490	inactive
42	CG14380	1		79130	60830	inactive
43	Manf	1		40930	36740	inactive
44	moon	1		3.37e5	3.11e5	inactive
45	Traf4	1		18310	18180	inactive
46	Traf4	2		98243	77800	inactive
47	CG4704	1		71080	70170	inactive
48	odd	1		9297	11723	inactive
49	Prosalpha4T1	1		78260	98160	inactive
50	dpr15	1		2.33e5	2.33e5	inactive
51	dpr15	2		29313	42507	inactive
52	dpr15	3		52327	49750	inactive
53	ValRS-m	1		61137	67160	inactive
54	AsnRS	1		74737	51960	inactive
55	Atpalpha	1		35910	38553	inactive
56	CG3734	1		69260	92510	inactive
57	DNAlig1	1		68990	65063	inactive
58	VhaAC45RP	1		1.48e5	1.66e5	inactive
59	CG10214	1		27300	29663	inactive
60	bocks	1		42147	31660	inactive
61	CG17739	1		64687	53930	inactive
62	ymp	1		2.76e5	2.93e5	inactive
63	ymp	2		60640	51350	inactive
64	CG9933	1		61597	63600	inactive
65	Rsph3	1		37937	36640	inactive
66	Rsph3	2		76640	95563	inactive
67	CG11768	1		43023	44493	inactive
68	CG31688	1		59120	70767	inactive
69	RabX1	1		48820	48003	inactive
70	Ripalpha	1		41193	54627	inactive
71	atl	1		57823	50757	inactive
72	inc	1		40000	43740	inactive
73	Sdb	1	at least 2 SD above plate mean			active
74	Sdb	2		79043	52123	inactive
75	Ugt37B1	1		36923	32877	inactive
76	TTLL4A	1		91700	62213	inactive
77	dila	1		48413	98180	inactive
78	vig2	1		30863	42187	inactive
79	NijA	1		97137	68880	inactive
80	stan	1		35900	32453	inactive
81	stan	2		37940	69277	inactive
82	CG3704	1		45340	46130	inactive
83	CG3704	2		70230	64570	inactive
84	CG11588	1		1.64e5	1.91e5	inactive
85	CG11588	2		86667	73460	inactive
86	spdi	1		40840	52060	inactive
87	CG33631	1		67877	59167	inactive
88	CG14280	1		61240	79170	inactive
89	CG32576 + UQCR-14	1		3.03e5	3.39e5	inactive
90	CheB53b	1		1.70e5	1.26e5	inactive
91	CR31958	1		24857	27657	inactive
92	GstZ2	1		57977	32027	inactive
93	CG13722	1		75960	83960	inactive
94	CG7573	1		82223	73103	inactive
95	CG7164	1		53210	69453	inactive
96	CG14332	1		91330	70230	inactive
97	CG17839	1		53417	41173	inactive
98	CG17839	2		69130	48623	inactive
99	Uba4	1		32713	70217	inactive
100	VhaPPA1-2	1		1.11e5	75910	inactive
101	CG15571	1		47310	54740	inactive
102	CG42755 (retired record)	1		1.35e5	1.59e5	inactive
103	CG42755 (retired record)	2		1.44e5	1.95e5	inactive
104	mEFTu2	1		81110	51487	inactive
105	Bcat	1		3.17e5	3.30e5	inactive
106	CG12071	1		12230	11730	inactive
107	Spec2 (retired record)	1		66687	66047	inactive
